According to US20170058314A1, “NOVEL METHODOLOGY FOR IDENTIFYING ANTI-PERSISTER ACTIVITY AND ANTIMICROBIAL SUSCEPTIBILITY FOR BORRELIA BURGDORFERI AND OTHER BACTERIA” (priority 2014, published 2017):

Columns and labels:
[1] = tested on: stationary phase B. burgdorferi persisters (strain B31); experiment: NCI compound library screen, SYBR Green I/PI assay (plate reader); settings: 50 μM, seven day old stationary phase culture, 7 days
[2] = tested on: stationary phase B. burgdorferi persisters (strain B31); experiment: NCI compound library rescreen, epifluorescence microscope counting

SMILES: CCN(CC)c1ccc2cc3ccc(=[N+](CC)CC)cc-3oc2c1.[Cl-] [NSC44690, Pyronin B]
- Residual viable cells (SYBR Green I/PI assay) [1]: 0%
- Residual viable cells (epifluorescence microscope counting) ([2]; 50 μM, seven day old stationary phase culture, 7 days): 19%
- Activity against persisters (residual viable cell percentage) ([2]; stationary phase persisters): 19%
